# Source: patent publication US5789541A (President and Fellows of Harvard College, priority 1995, dated 1998)
# Test: general procedure: solution-phase peptide synthesis; 1-ethyl-3-(3-dimethylaminopropyl)carbodiimide hydrochloride / 1-hydroxybenzotria
substance,measurement,setting,value
(4S)-N-Boc-4-amino-2 2-difluoro-3-hydroxy-5-(S-all-trans-farnesyl)-1-(methyl L-Val-L-Ile-L-Met)pentanoic Amide,step yield,coupling step,19%
"(3S, 4S)-N-Boc-4-amino-3-hydroxy-5-(S-all-trans-farnesyl)-1-(methyl L-Val-L-Ile-L-Met) pentanoic Amide",step yield,coupling step,70%
"(4S)-N-Boc-4-amino-2,2-difluoro-3-hydroxy-5-(S-all-trans-farnesyl)-1-(L-Val-L-Ile-L-Met)pentanoic Amide",step yield,late stage modification step,40%
